{
  "source": "paper PMC8175350",
  "about": "“Drug repurposing screens identify chemical entities for the development of COVID-19 interventions” (Nature Communications, 2021)",
  "key": {"Calu-3 cells": {"tested_on": "Calu-3 cells", "experiment": "cells", "conditions": "Homo sapiens, Calu-3, read-out: Calu-3 cell count EC50 GeoMean"}, "SARS-CoV-2 [1]": {"tested_on": "SARS-CoV-2", "experiment": "microbe, parasite or virus in culture", "format": "cell-based"}, "HeLa-ACE2 cells [2]": {"tested_on": "HeLa-ACE2 cells", "experiment": "cells", "format": "cell-based", "conditions": "Homo sapiens, HeLa-ACE2, read-out: HeLa-ACE2 TOA cell count EC50 GeoMean"}, "SARS-CoV-2 [3]": {"tested_on": "SARS-CoV-2", "experiment": "microbe, parasite or virus in culture", "format": "cell-based", "conditions": "Severe acute respiratory syndrome coronavirus 2, HeLa-ACE2; detail block; read-out: HeLa-ACE2 CoV-2 EC50 GeoMean"}, "HeLa-ACE2 cells [4]": {"tested_on": "HeLa-ACE2 cells", "experiment": "cells", "conditions": "Homo sapiens, HeLa-ACE2, read-out: HeLa-ACE2 cell count EC50 GeoMean"}, "SARS-CoV-2 [5]": {"tested_on": "SARS-CoV-2", "experiment": "microbe, parasite or virus in culture", "format": "cell-based", "conditions": "Severe acute respiratory syndrome coronavirus 2, Calu-3, read-out: Calu-3 CoV-2 EC50 GeoMean"}},
  "note": "Counter-ions that a name gives are not always drawn. Like-named read-outs stand apart in the source and are kept apart here.",
  "data": [
    {"smiles": "CN1CC2c3ccccc3Oc3ccc(Cl)cc3C2C1", "note": "(stereo not shown) [Asenapine maleate]", "values": [
      {"measurement": "EC50", "setting": "Calu-3 cells", "value": "> 9.98", "unit": "µM"},
      {"measurement": "TOA:HeLa-ACE2 EC50 Ratio", "setting": "SARS-CoV-2 [1]", "value": 3.958},
      {"measurement": "EC50", "setting": "SARS-CoV-2 [1]; Severe acute respiratory syndrome coronavirus 2, HeLa-ACE2, read-out: HeLa-ACE2 TOA CoV-2 EC50 GeoMean", "value": "> 9.61", "unit": "µM"},
      {"measurement": "EC50", "setting": "HeLa-ACE2 cells [2]", "value": "> 9.61", "unit": "µM"},
      {"measurement": "EC50", "setting": "SARS-CoV-2 [3]", "value": "> 2.43", "unit": "µM"},
      {"measurement": "EC50", "setting": "HeLa-ACE2 cells [4]", "value": "> 9.6", "unit": "µM"},
      {"measurement": "EC50", "setting": "SARS-CoV-2 [5]", "value": "> 9.98", "unit": "µM"}
    ]}
  ]
}
